{
  "source": "patent US20200147037A1",
  "about": "“NEW TREATMENT OF BRAIN CANCER” (priority 2017, published 2020)",
  "origin": "cited, not measured here",
  "system": "glioblastoma",
  "details": "cited from earlier work",
  "note": "Where two headings read alike, the source gives them in different places. At least one structure is not confirmed: it was looked up by name or label, or the drawing left a doubt.",
  "data": [
    {"compound": "O=C1C=CC(=O)c2c(O)cccc21", "note": "[Juglone]", "values": [
      {"measurement": "increase in survival", "setting": "mouse, in vivo", "result": 23.6, "unit": "%"}
    ]},
    {"compound": "Cn1nnc2c(C(N)=O)ncn2c1=O", "note": "[Temozolomide]", "values": [
      {"measurement": "increase in survival", "setting": "standard of care, WU et al. 2017", "result": 160, "unit": "%"}
    ]}
  ]
}
